Experimental data reported in the supplement of paper PMC6143611.
Where a name gives a salt, the structure may show the parent alone. ± gives the uncertainty stated by the source. This is one part of the list. Baselines shift from plate to plate; read single values as rough.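 A heat-shock-induced fluorescent stripe was set in larval rod outer segments at 6 dpf. Shedding distance ran from stripe to outer segment tip, measured by confocal stacks in about three fish per compound. Controls: 0.2% DMSO vehicle. Flagged compounds showed ≥20% change from same-week control, p < 0.001 (Dunnett test on mixed-effects models).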

What was measured:
[1] = tested on: Danio rerio larva rod photoreceptor outer segment; assay: rod outer segment growth distance Dg, difference from same-week DMSO control mean; higher = more outer segment growth; conditions: 20 µM; treatment time: 4 days (6-10 dpf)
[2] = tested on: Danio rerio larva rod photoreceptor outer segment; assay: rod outer segment shedding distance Ds, difference from same-week DMSO control mean; higher = less outer segment shedding; conditions: 20 µM; treatment time: 4 days (6-10 dpf)

Structure (SMILES) | rod outer segment growth distance Dg [1] [um] | rod outer segment shedding distance Ds [2] [um]
CCn1cc(C(=O)O)c(=O)c2cc(F)c(N3CCNCC3)nc21 [Enoxacin] | -0.5 ± 0.21 | -0.57 ± 0.16
Cc1cc(C(C)(C)C)c(O)c(C)c1CC1=NCCN1 [Oxymetazoline HCl] | 0.26 ± 0.27 | 0.42 ± 0.29
Cc1c(Nc2ncccc2C(=O)O)cccc1C(F)(F)F [Flunixin Meglumin] | 0.42 ± 0.21 | -0.4 ± 0.25
CN(C)Cc1c(C(=O)NCCOc2ccc(C(=O)NO)cc2)oc2ccccc12 | -0.82 ± 0.21 | 0.91 ± 0.24
CC(C)Cc1ccc(C(C)C(=O)O)cc1 (configuration not stated) [Ibuprofen] | 0.46 ± 0.25 | -0.28 ± 0.17
Cc1cccc(C#Cc2ccccc2)n1 | -2.69 ± 0.6 | -1.15 ± 0.31
CCn1cc(-c2ccnc3[nH]c(-c4cccc(CN(C)C)c4)cc23)c(-c2ccc(NC(=O)N(C)C)cc2)n1 | -0.61 ± 0.17 | -0.8 ± 0.11
CCCCC[C@H](O)/C=C/[C@H]1[C@H](O)CC(=O)[C@@H]1CCCCCCC(=O)O [Alprostadil] | -1.06 ± 0.18 | 0.88 ± 0.21
O=C(c1ccc(/C=C/c2n[nH]c3ccccc23)cc1)N1CCNCC1 | -1.42 ± 0.28 | 0.69 ± 0.24
CCCCCCCCCC(=O)N[C@@H](Cc1c[nH]c2ccccc12)C(=O)N[C@H](CC(N)=O)C(=O)N[C@@H](CC(=O)O)C(=O)N[C@@H]1C(=O)NCC(=O)N[C@@H](CCCN)C(=O)N[C@@H](CC(=O)O)C(=O)N[C@H](C)C(=O)N[C@@H](CC(=O)O)C(=O)NCC(=O)N[C@H](CO)C(=O)N[C@@H]([C@H](C)CC(=O)O)C(=O)N[C@@H](CC(=O)c2ccccc2N)C(=O)O[C@@H]1C [Daptomycin] | 0.81 ± 0.27 | -0.07 ± 0.28
Cn1c(=O)c2[nH]cnc2n(C)c1=O [Aminophylline] | 0.71 ± 0.19 | -0.36 ± 0.19
